# These are yes or no findings as the source states them, for the method shown. For some assays here: Binding can be weak; no strength is given. For some assays here: Tags and fused reporters may be left off the sequences shown.
# T1: 3nmt1-mECitrine-Ync13 (S. pombe) (UniProt O13683)
# T1 sequence: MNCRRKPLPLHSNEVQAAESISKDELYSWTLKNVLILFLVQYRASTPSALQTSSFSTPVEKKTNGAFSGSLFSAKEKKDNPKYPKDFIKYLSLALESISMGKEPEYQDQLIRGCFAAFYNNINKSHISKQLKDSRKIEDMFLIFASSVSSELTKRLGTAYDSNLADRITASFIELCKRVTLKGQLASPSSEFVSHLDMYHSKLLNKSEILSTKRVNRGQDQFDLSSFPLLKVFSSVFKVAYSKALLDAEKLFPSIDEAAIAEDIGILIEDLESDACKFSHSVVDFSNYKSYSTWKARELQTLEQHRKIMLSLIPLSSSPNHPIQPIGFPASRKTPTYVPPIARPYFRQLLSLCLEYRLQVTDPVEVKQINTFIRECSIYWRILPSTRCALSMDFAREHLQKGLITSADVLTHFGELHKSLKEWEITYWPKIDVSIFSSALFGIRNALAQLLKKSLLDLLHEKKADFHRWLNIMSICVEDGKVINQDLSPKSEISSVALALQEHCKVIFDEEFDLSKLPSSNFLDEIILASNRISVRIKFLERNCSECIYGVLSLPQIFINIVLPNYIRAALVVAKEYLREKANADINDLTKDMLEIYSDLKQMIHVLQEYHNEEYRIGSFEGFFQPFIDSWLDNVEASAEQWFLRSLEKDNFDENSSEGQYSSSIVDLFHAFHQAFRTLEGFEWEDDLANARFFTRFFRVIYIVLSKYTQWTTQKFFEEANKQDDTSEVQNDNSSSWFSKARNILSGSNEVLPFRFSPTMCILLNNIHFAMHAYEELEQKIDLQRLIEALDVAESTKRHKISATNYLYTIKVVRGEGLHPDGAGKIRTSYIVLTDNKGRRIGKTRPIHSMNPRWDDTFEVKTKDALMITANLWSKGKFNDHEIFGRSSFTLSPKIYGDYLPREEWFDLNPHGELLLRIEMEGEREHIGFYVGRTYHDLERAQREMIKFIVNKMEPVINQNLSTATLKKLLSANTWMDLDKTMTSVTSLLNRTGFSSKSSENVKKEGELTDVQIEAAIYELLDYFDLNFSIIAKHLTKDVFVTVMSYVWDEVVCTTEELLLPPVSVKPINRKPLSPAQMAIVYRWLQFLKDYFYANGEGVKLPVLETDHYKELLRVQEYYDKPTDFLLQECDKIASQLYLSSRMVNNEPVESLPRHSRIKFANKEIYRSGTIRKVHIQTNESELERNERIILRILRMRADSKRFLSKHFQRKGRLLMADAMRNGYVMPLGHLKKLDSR
# T2: Rga7-mEGFP (S. pombe) (UniProt O94466)
# T2 sequence: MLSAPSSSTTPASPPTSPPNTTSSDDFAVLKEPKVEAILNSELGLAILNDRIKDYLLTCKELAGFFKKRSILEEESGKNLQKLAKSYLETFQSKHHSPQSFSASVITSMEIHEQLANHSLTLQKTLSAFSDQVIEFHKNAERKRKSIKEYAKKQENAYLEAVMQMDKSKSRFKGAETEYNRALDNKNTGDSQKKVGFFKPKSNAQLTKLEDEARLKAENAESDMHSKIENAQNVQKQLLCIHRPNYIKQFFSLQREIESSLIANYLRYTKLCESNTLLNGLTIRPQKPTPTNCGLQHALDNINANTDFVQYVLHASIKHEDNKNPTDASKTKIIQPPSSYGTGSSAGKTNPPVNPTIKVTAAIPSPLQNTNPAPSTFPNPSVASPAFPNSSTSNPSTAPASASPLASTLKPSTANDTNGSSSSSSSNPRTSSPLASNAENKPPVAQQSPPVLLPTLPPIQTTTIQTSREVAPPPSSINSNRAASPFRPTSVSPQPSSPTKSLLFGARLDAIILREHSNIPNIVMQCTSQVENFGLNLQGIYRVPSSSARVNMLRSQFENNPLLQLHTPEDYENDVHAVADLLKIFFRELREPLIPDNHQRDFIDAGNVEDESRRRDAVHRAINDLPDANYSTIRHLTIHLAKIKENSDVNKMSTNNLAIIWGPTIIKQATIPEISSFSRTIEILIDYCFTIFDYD
# T3: Rng10-mEGFP (S. pombe) (UniProt Q9P6L9)
# T3 sequence: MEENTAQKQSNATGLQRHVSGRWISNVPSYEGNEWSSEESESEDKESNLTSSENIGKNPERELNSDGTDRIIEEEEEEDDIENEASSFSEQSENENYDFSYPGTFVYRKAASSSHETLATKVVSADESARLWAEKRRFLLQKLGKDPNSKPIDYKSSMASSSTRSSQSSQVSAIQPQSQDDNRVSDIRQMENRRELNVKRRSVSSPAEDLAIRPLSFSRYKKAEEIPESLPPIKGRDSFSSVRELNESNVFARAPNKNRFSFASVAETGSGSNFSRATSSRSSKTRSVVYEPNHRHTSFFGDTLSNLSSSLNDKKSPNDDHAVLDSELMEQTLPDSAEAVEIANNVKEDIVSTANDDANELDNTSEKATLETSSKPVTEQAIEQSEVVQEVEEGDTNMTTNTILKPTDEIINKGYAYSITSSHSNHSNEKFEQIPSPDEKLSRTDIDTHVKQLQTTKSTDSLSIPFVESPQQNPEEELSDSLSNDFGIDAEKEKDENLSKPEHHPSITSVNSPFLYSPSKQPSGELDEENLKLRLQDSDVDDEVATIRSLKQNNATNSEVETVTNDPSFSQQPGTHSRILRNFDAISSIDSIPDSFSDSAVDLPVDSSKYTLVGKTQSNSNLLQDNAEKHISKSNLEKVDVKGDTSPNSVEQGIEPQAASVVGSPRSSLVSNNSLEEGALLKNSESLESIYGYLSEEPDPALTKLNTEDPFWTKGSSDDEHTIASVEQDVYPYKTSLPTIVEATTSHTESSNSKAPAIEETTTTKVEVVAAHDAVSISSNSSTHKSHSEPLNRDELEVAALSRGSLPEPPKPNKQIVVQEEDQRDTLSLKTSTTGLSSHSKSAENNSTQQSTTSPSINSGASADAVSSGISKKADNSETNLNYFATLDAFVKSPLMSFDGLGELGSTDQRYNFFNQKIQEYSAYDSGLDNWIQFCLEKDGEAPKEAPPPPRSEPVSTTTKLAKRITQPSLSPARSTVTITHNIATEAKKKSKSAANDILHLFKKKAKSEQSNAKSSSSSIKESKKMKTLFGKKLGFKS
# B1: Ync13-tdTomato (protein, UniProt O13683 1-1237)
# chain: MNCRRKPLPLHSNEVQAAESISKDELYSWTLKNVLILFLVQYRASTPSALQTSSFSTPVEKKTNGAFSGSLFSAKEKKDNPKYPKDFIKYLSLALESISMGKEPEYQDQLIRGCFAAFYNNINKSHISKQLKDSRKIEDMFLIFASSVSSELTKRLGTAYDSNLADRITASFIELCKRVTLKGQLASPSSEFVSHLDMYHSKLLNKSEILSTKRVNRGQDQFDLSSFPLLKVFSSVFKVAYSKALLDAEKLFPSIDEAAIAEDIGILIEDLESDACKFSHSVVDFSNYKSYSTWKARELQTLEQHRKIMLSLIPLSSSPNHPIQPIGFPASRKTPTYVPPIARPYFRQLLSLCLEYRLQVTDPVEVKQINTFIRECSIYWRILPSTRCALSMDFAREHLQKGLITSADVLTHFGELHKSLKEWEITYWPKIDVSIFSSALFGIRNALAQLLKKSLLDLLHEKKADFHRWLNIMSICVEDGKVINQDLSPKSEISSVALALQEHCKVIFDEEFDLSKLPSSNFLDEIILASNRISVRIKFLERNCSECIYGVLSLPQIFINIVLPNYIRAALVVAKEYLREKANADINDLTKDMLEIYSDLKQMIHVLQEYHNEEYRIGSFEGFFQPFIDSWLDNVEASAEQWFLRSLEKDNFDENSSEGQYSSSIVDLFHAFHQAFRTLEGFEWEDDLANARFFTRFFRVIYIVLSKYTQWTTQKFFEEANKQDDTSEVQNDNSSSWFSKARNILSGSNEVLPFRFSPTMCILLNNIHFAMHAYEELEQKIDLQRLIEALDVAESTKRHKISATNYLYTIKVVRGEGLHPDGAGKIRTSYIVLTDNKGRRIGKTRPIHSMNPRWDDTFEVKTKDALMITANLWSKGKFNDHEIFGRSSFTLSPKIYGDYLPREEWFDLNPHGELLLRIEMEGEREHIGFYVGRTYHDLERAQREMIKFIVNKMEPVINQNLSTATLKKLLSANTWMDLDKTMTSVTSLLNRTGFSSKSSENVKKEGELTDVQIEAAIYELLDYFDLNFSIIAKHLTKDVFVTVMSYVWDEVVCTTEELLLPPVSVKPINRKPLSPAQMAIVYRWLQFLKDYFYANGEGVKLPVLETDHYKELLRVQEYYDKPTDFLLQECDKIASQLYLSSRMVNNEPVESLPRHSRIKFANKEIYRSGTIRKVHIQTNESELERNERIILRILRMRADSKRFLSKHFQRKGRLLMADAMRNGYVMPLGHLKKLDSR
# Legend:
# Assay in all cases: ectopic mistargeting to mitochondria (Tom20-GBP); mEGFP-, GFP- or mECitrine-tagged protein 1 mistargeted to mitochondria by Tom20 tagged with GFP-binding protein (GBP) nanobody in live S. pombe cells; recruitment of tdTomato-, mCherry- or RFP-tagged protein 2 to mitochondria seen by confocal microscopy
# [1] = biological target: T1, 3nmt1-mECitrine-Ync13 (S. pombe)
# [2] = biological target: T2, Rga7-mEGFP (S. pombe)
# [3] = biological target: T3, Rng10-mEGFP (S. pombe)
# [4] = biological target: Rga7(ΔF-BAR)-mEGFP (S. pombe)
molecule,measurement,setting,value
Ede1-mCherry (S. pombe),binding,[1],no binding
Sec3-mCherry (S. pombe),binding,[1],no binding
Sec3-tdTomato (S. pombe),binding,[2],no binding
same,binding,[3],no binding
B1,binding,[4],binds
